# Source: article PMC6882875
# Where a protein sequence is shown, tags need not be part of it. For some assays here: The exact form of at least one protein or probe is not confirmed.
# Key:
# [1] = test system: T1, AraQ (Bifidobacterium breve UCC2003); assay: EMSA; details: 150 nM protein, EMSA: binding buffer stock 80 mM Tris-HCl pH 8.0, 20 mM MgCl2, 2 mM DTT, 4 mM EDTA, 400 mM KCl, 40% glycerol (final dilution not stated), poly(dI-dC) 0.05 ug/ul, recombinant protein, protein details: C-terminal His10, label: 5' IRD700, probe letters rebuilt from the primers and the genome
# T1 sequence (looked up, limits assumed): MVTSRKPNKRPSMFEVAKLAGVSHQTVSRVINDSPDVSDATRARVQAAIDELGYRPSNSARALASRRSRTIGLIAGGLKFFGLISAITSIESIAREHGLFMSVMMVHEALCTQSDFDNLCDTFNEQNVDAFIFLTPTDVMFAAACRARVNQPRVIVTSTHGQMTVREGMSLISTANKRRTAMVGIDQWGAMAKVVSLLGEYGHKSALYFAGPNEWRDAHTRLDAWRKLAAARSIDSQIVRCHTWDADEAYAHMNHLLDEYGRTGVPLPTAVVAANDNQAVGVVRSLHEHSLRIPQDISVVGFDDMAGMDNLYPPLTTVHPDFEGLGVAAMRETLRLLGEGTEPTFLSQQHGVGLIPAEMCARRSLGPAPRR
# [2] = test system: T2, MalR1 (Bifidobacterium breve UCC2003); assay: EMSA; details: 150 nM protein, EMSA: binding buffer stock 80 mM Tris-HCl pH 8.0, 20 mM MgCl2, 2 mM DTT, 4 mM EDTA, 400 mM KCl, 40% glycerol (final dilution not stated), poly(dI-dC) 0.05 ug/ul, recombinant protein, residues 1-338, protein details: C-terminal His10, label: 5' IRD700, probe letters rebuilt from the primers and the genome
# T2 sequence (looked up): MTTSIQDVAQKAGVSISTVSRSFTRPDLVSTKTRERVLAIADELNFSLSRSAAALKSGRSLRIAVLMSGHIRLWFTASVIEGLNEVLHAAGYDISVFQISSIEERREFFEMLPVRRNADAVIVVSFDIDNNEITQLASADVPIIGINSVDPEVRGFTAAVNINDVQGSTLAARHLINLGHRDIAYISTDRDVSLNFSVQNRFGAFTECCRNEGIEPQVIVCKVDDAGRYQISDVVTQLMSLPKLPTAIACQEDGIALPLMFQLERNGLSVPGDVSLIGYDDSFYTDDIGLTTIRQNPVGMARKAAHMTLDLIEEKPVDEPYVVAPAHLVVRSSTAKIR
# [3] = 10 mM effectors gave no consistent change
Sequence,binding result [1],binding result [2],binding signal ([2]; counted as no binding) [% bound],also measured
CATAACAGCCCCTTTGCCTTGCAAAACGCGAAGCGGACACAACTGGCTCCAGTGTACATGGTGATTGGGCAATTTGCACAATGACAACGATTGTATTACAAACGTTTGCAGATAGTCTATTATTATGCAGAAACGTTGGAATTTAGCTATTTTGTGAAGTGAAAGATAATTGCTCTGATGGGATGTAGCTGCATGTAGAAACGCTGTAAATGACAACGTTTGACATATGGTTGTCGAGTGTTTACCATGAAGCTTAGGCTTGATTGGCGGGATTCGCGAACGTGTGTTCTGCTTGACGGGCTGGAATTGAGTTGAACTCCGCGCTCGGCGCACGATGCAGTGCAGTGTTGCGGACTCAAGGAGGAGGAAAGTCATG (double strand) [malF/malR1 intergenic region],binds,binds,,
CCACGTCACGAATAGTTGCCTTCTGCCCGTTTGCCACGTCTCCTCCTGTCGCCGATCCCACCGTTCATCCATTGTAAGGCCACAACCCATATATCTCCCATGGCAGTCGATTCGGACGAAATCCGGCTTGAAAACGTCCGAATCGACACCCATCCTGCGCCATCCGTCCGAATCAACCGCACACCGGGGACAACAACAGGGGGCAACAAACAAAGCCAGACACCACCCATACAACACAAAAAGCGCCGTCCGCGTGAAGCGGGCAGCGCTTTTGTTATCTCTCGTTACGAGCCTAGTGAAAGAATCTCACTGAACCTGGGTACGAGCGATCTTGCCGTTGAAGGACTCAGCCTCATCCTTGTCCTTGGCCTCGGCGTTGTTCCAGGAGAACATAGCGCGCAGC (double strand) [cldR promoter],,,0,binding signal ([1]; counted as no binding): 0 % bound
CCGGAACTTCTCGCTATCATCATGCTTTCCTCGTCTCCGGCGAACCGTCGTCTAACGCGTCGATATCGGCGTATCGCTACAGCGCGCTCGTTATGCTCACGGGTCGTGGAGCGAGCACGCAGCTTTGCGGAATATGCCCACTTCATTAGCGAAATCGGTTTTGCACACGTTGGCTTTTGGCCTCCCCGAAGTCGACTCCAAACAACCACTTACCACTGGTCGACTTCGACGTGCATCACTTCTCTCGTGTGCACAACATCATACTGCAAAGGTTGTCATTATTTCAACCCGCATGCCCTCTAATTAAGGGGGTATGGGTTCTCTTCCCGCATAGCAACAGGGGAAATACGTTGAATATGTTGACACTATACGCCGGCGTGTCGAAAACATTTACCCCCCATACGGGGGAATCTACGTATTGCATGCATATGCATTACCATCTATTCAAAGGGGAACGGCAGAGGTCAGGACCCCGCCATCGGGAATCAACAGCGAATTGTCCCATGCTATTATGCAAACGATGTCAGTATGTACAACACACCCCATGTCGGCGAATTTCCTCACCGCCGCTTTCGACACGTCACGCAGCGCGAAGCAGATTCCCGCTGCCGAGCAATCGACGGCATTACCGCCACCGGGCATGATACCGTTGTCATAGCAATGACAATCGAAACGCACACACCGACGGCGCAGCGCAACATACACAAGAACAAGGCAACACGCATCCGCACAGCAGCAGAGGATAAAGACTATGGCAAAAGCAAGCATTCAAGCG (double strand) [malR6/Bbr_0113 intergenic region],,binds,,
CGAACCTTTCTCTTTCATCGTCGACCCGCCCGATCTCCGGTCGGCCAGAGTGCCGTTAGCAGCACCCTCACGACTATCGACATGACCTATTGTGCAACGGTTCGCGCTTTTTTGCAAACGATGGCATTATCGGCGCGCCAAAAAGTGCTACAGAAGCATGTGCAGTTGACCAATTTCCCGATAAACCAGTCGGTTTCCGCCGGCAGCAGCAATGCAAGCGTTGGCAACAATGAGAGCGTTAACATGCAAAATCCATACCTTATGCGCGGCCATTTACCCCGTTGCGCAACACGCCGAAGCCATCGTTTGCAGAAACGATGACGCACACGCCTCGTCCGCTCACGGCTCAAAACAGAACGCAGTCACTGCATTTGCGCCAAAGAAACGTCAAGCCAGCCCGCTACGGCTCAGCTCAGGCATTCC (double strand) [malE promoter],binds,,0,
CGCACCTCCTTCCACGCTGTCACCAGTGTACGTTACCTGTACCGAAATCAATCCAAAAAACAGTGTTCATGTGAAATTCACTGCGTATTTGCGGATTAAGGGGCTGCGGACATTTTCTTGGAGATAATCACGCAGCCATTCCTTGGCTTTGACGATATTGTACCGGGCTCATCCAACCAAGTGACTGTTCCCGTTGTCTATTTGTAAGTGCAACATCCTTGTTCTCGGCTGATTCTAGCGGTTCGTCGGCGAATGCCTCGGCGGGGGTGCGCTAGCCGAGCACTCGCATGGGCCTGTTGTCGGTTTCGTCGACGATCTCCTGCAGTTCGCGTGCCATGGAGGGGGCGACGGGCGTGCGTTTGGGCGGGTGGCGGCGGATCATGCCGTTCCTGTTCTCGTTGCCGCCGCGCCGCCACGAGCTGTACGGGTCGGCGAAATACGCGGCCATGCCCGGTTCGTCGCGCAACTCGGCGTGCCGACCGTGGACGCATGCCGTCCCGGCATCATGGCTATGCGGCGCACGCTCGCCCCGTTGCCCATCTCAATCTGGATGACCTGCCGTTCCTCTTCCGACAGGTGCGAATACACCTGGCCCAAGGCGCAACACCCCTCCGTTTGGCTATCCGGACAATCTCCAATCTAACGG (double strand) [glgP2 promoter],,,0,binding signal ([1]; counted as no binding): 0 % bound
CGCCATGATGTCTCCTTTCGCTGTGTGGTGGGCGGTGTCAGATACTGTAGCCGTGCTGGCGCCGCCGCAATCGCTGCGACGTACGCCCATGCACATTAATAGCATATATGTATGCGCTTACATTCTTTTGTACCACGATGTGCGCGTTGTTAGCGGTCACGGTTTGATTGTGTTTGCAATGGTTTACCAATGTTCTGTATTGTGCGCATGTGATGTGACGCGCAATCTGCAGGCGGCGGTTGACGGTGTGCAATGTAAGCGCTATCATTTTGTTGTGTCAATCAATGCATGGTTGATGCAGCCGGCATCCGATCCGGCAGGGCGACCGCAAGGTCGTACACGGATATGTGCATGGAGGCACGTATCACATGAGC (double strand) [malR5/malE2 intergenic region],,,,binding signal [1]: < 15 % bound; binding signal [2]: < 15 % bound
CGGTTCCTACGCCAAGTAATCGCTTGACGGCTCGCAGCACTTGGCCGGCGCGGACCACTCCTCTGCACTGGCCAACCCAACCTATAACTGAATAACCAACAATCAAATATGAGGGGTCCGTAAGGTACGCCAGCTGCGGGCGGATGATGTGAAGCCGTTGCATCCGCTCGCAGCCCCTCACCTATCGACGGTTTCAACCTTCTTTGTTTCTCCTCCTTCATTGCCGGCAGAGCTCGGGCAACGTGCATGCGGTGTCCGGGCTTTGAACGGGTTTAAGCGAAGACAAACAAACAACAAGCCGGGCATCGCGGCCCGGAGCAACGGTTTCCATCATTTACAGTGAGAGGCGGTAGGGTGCGATGACAGCAGCAGCACTT (double strand) [agl4/malE1 intergenic region],binds,binds,,
GAACTTCAGGCCGCCAGCGATCAAACCGATAGTACGTGAACGGCGGGAGGCCAAGGCACGAGCGGAATTGGAGGGACGATATCCAAGCTCGTCAATGGCGGCCTGCACACGGGCACGCGTGGCGTCAGACACATCCGGCGAATCGTTGATCACACGGGATACGGTCTGGTGACTGACCCCGGCGAGTTTGGCCACCTCGAACATGGATGGGCGCTTGTTTGGTTTGCGGCTGGTCACCATACTGCCCGAACCTCCCCGCTGGCGGCCGAATTCCGTGCCCGGCCGTGCTGCACCTTATTAATTATTGACTTTAGCGCGCCTGAGGCGATTTCGCGTGAGCGCTCACATTGTCGTGTCGCGAATCGGTCTGGAGCCACTGCGCTGCATGGCAATCCGCAACATCAGGTCAAATGCCAGGAAGTGCG (double strand) [araQ promoter],,,,"binding result [1, 3]: binds; binding result [2, 3]: binds"
GATCGACATACAGCATGCCGTTCGGTTGAAAATACGACATAAGCACGATGCCTCCTTGCAATGCATTAAACCACTGCGGCCAGCTACGGCCATCAGACGAATTTAATGTTGAGGTTCATTCCGCTTCACCAAATTCGTATTATCATCATATCGTCATAACGTATTATCGTCATATCGGCGTGTCGCTATGGCGAACCGCAATCCGTATGCTCCTTTTATCAGCCAGAATCAGATTCGAATTCAGTCTCAACAAGACTGTTAACCACCGACCAATGAAGCATCGAGGCCGGCTCAATCGGCAAATGCAACAGTAAGAACCTAGATTGCCCTGAAAGTCACGCCGTTGCGGGCGGCCTTGCGTTCGGCTTTGCGCTCCTCGGCATTTTCGATGCGTTGGATGCGCAGCTGGCGCCAATCCTCGCGCATATC (double strand) [Bbr_1894 (PTS) promoter],binds,,,binding signal [2]: < 15 % bound
